# From paper doi:10.1101/177980
# The chains behind the UniProt entries cited, without tags or fusion partners. Where a name states a change or a piece, a line headed by the entry shows the natural chain unless it says otherwise. A line that says so, or that is headed by a name, gives the form on record, which may keep a tag or linker.
# UniProt O43809: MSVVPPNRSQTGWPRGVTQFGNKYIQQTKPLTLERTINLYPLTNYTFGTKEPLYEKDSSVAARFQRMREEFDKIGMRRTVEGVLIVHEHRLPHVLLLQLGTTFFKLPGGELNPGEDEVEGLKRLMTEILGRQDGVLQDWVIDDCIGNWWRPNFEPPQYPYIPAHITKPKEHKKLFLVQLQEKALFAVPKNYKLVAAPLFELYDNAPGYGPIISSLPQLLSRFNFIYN
# UniProt Q16630: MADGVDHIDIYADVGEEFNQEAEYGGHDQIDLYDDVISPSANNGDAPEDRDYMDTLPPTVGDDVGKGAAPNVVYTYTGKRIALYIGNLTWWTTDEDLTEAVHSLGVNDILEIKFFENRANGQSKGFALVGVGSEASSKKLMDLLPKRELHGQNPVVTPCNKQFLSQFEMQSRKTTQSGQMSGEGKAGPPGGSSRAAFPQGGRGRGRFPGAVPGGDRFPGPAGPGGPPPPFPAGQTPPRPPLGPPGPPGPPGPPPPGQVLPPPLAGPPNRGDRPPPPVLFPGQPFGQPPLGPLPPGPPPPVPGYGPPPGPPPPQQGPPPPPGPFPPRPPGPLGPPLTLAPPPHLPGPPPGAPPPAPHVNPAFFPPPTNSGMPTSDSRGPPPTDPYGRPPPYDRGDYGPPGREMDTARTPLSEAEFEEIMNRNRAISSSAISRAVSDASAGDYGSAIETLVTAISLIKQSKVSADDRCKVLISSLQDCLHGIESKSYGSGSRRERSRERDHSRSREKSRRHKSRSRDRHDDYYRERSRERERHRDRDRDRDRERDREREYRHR
# CFIm68 RS1 S-to-A (Q16630, form named): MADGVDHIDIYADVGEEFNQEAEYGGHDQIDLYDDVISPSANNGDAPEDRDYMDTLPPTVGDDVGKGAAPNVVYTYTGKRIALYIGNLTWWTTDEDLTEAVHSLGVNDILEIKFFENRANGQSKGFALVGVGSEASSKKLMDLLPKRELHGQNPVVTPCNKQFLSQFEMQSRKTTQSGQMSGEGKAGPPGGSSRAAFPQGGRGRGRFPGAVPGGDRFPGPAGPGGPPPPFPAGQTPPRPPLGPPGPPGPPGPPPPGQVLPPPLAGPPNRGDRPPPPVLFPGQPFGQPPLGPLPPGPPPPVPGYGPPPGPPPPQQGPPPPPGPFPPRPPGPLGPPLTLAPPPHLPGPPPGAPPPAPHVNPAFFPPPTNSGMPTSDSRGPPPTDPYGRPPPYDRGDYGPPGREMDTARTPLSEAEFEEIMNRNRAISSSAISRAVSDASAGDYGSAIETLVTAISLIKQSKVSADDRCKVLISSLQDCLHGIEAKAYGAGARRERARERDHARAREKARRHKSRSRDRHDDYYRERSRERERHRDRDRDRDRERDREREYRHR
# Where two headings read alike, the source gives them in different places. No constants are given. Whether binding was seen depends on the method and setting. Binding seen in cells or lysates may run through a third protein. Some entries that bind do so weakly or less than the wild type.
# B1: CFIm59 (cleavage factor Im 59 kDa subunit), endogenous (protein, UniProt Q8N684 1-471)
# chain: MSEGVDLIDIYADEEFNQDPEFNNTDQIDLYDDVLTATSQPSDDRSSSTEPPPPVRQEPSPKPNNKTPAILYTYSGLRNRRAAVYVGSFSWWTTDQQLIQVIRSIGVYDVVELKFAENRANGQSKGYAEVVVASENSVHKLLELLPGKVLNGEKVDVRPATRQNLSQFEAQARKRECVRVPRGGIPPRAHSRDSSDSADGRATPSENLVPSSARVDKPPSVLPYFNRPPSALPLMGLPPPPIPPPPPLSSSFGVPPPPPGIHYQHLMPPPPRLPPHLAVPPPGAIPPALHLNPAFFPPPNATVGPPPDTYMKASAPYNHHGSRDSGPPPSTVSEAEFEDIMKRNRAISSSAISKAVSGASAGDYSDAIETLLTAIAVIKQSRVANDERCRVLISSLKDCLHGIEAKSYSVGASGSSSRKRHRSRERSPSRSRESSRRHRDLLHNEDRHDDYFQERNREHERHRDRERDRHH
# modifications: phosphorylated (pIMAGO signal)
# Tests used:
# [1] = molecular target: CFIm25 (cleavage factor Im 25 kDa subunit), endogenous (human (endogenous in HEK293 Flp-In T-REx)) (UniProt O43809); test: co-IP
# [2] = molecular target: CFIm25 (cleavage factor Im 25 kDa subunit), endogenous (human (endogenous in HEK293 Flp-In T-REx)) (UniProt O43809); test: co-IP; remark: listed apart in the source
Molecule,binding [1],binding [2]
CFIm68 S511A S513A S525A (RS2 S-to-A) (from UniProt Q16630 1-551),binds,–
"CFIm68, endogenous in HEK293 Flp-In cells (from UniProt Q16630 1-551)",binds,–
CFIm68 RS1 S-to-A (from UniProt Q16630 1-551),binds,–
B1,–,binds
